Some entries share one result that the patent states for a list of compounds.
Biological target: T1, STING (Homo sapiens, UniProt Q86WV6, G230A/H232R/R293Q/R71H)
T1 construct: THP1-Dual cells in the experiment were purchased from InvivoGen company; host or cells: THP1-Dual cells
Experiment: Type I interferon pathway (ISG) luciferase reporter in human THP1-Dual cells
Format: cell-based
Conditions: 10 μM
Description: In this experiment, the ability of compounds to activate STING was evaluated by detecting the ability of compounds to stimulate the production of IFN-β in human peripheral blood mononuclear cell line THP1-Dual cells. THP1-Dual cells in the experiment were purchased from InvivoGen company. […] THP1-Dual cells were counted, cell concentration was adjusted to be 1×10^6/ml, and 180 μl of cells was added to each well for incubation. […] In addition, the blank group was added with 200 μl of culture solution. After 24 hours, 20 μl of culture solution was took from each well to a new bottom transparent 96-well plate, and 50 μl luciferase detection reagent QUANTI-Luc™ was added, the fluorescence value was immediately determined. […] The data were described by the ratio of the LUM of compound to the LUM of blank control.

The chains behind the UniProt entries cited, without tags or fusion partners.
UniProt Q86WV6, whole entry R71H/G230A/H232R/R293Q: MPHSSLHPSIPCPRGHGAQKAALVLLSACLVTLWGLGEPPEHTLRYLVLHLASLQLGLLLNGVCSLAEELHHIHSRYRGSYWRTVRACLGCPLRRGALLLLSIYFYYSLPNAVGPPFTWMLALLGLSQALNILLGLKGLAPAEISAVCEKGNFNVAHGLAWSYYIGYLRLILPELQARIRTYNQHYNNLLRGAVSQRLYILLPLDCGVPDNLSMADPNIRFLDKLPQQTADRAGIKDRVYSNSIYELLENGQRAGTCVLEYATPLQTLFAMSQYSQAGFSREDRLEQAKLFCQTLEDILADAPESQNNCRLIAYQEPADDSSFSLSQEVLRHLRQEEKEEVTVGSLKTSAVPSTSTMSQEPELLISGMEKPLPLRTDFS

activation effect on STING relative to GSK compound 3	activation effect on STING relative to positive control ADU-S100	Structure (SMILES)
more than 2 times	2-3 times	Cc1cc(C(=O)Nc2nc3cc(C(N)=O)cc(OCCCN4CCOCC4)c3n2C/C=C/Cn2c(NC(=O)c3cc(C)nn3CC(F)(F)F)nc3cc(C(N)=O)c4oc(C)cc4c32)n(CC(F)(F)F)n1 [Example 20]
more than 2 times	2-3 times	C=CCn1nc(C)cc1C(=O)Nc1nc2cc(C(N)=O)cc(OC3COC3)c2n1C/C=C/Cn1c(NC(=O)c2cc(C)nn2CC=C)nc2cc(C(N)=O)c3oc(C)cc3c21 [Example 18]

Source: US12492212B2, “Substituted pyrazolecarboxamides as sting activators” (Shanghai Institute of Materia Medica, Chinese Academy of …, priority 2019, dated 2025)
